Source: patent publication US10729659B2, “Nanogel-mediated drug delivery” (The Cleveland Clinic Foundation, priority 2012, dated 2020)

Assays:
MCF-7 = experiment: Sequential treatment, cell viability by MTS assay; type: cell-based; conditions: Homo sapiens, MCF7, dox alone, read-out: IC50 (Dox ng/mL)
Experimental: (§1) The efficacy of sequential treatment was tested in the following human breast cancer cell lines: MCF-7/Adr (drug resistant), MCF-7, MDAMB 231 and BT-459. Cells were seeded at 3000 cells per well/0.1 mL in 96-well plates (Microtest Becton Dickinson Labware, Franklin Lakes, N.J.). 24 h post seeding, cells were pretreated with DAC solution/nanogel for 24 h or 48 h and washed with 1×-DPBS. 0.1 mL of media containing dox solution or nanogel was added and incubated in CO2 incubator for 48 h. Cell viability was determined at the end of incubation period using a standard MTS assay (CellTiter 96 Aqueous, Promega, Madison, Wis.). To each well was added 20 μL of reagent, the plates were incubated for 2 h at 37° C. in cell culture incubator, and color intensity was measured at 490 nm using a micro plate reader (Bio-Tek Instrument, Winooski, Vt.). The effect of drug on cell proliferation was calculated as percentage growth of cells with respect to their respective controls. […]
(§2) The interaction between DAC and dox was analyzed using the Calcusyn software program (Biosoft, Ferguson, Mo.) to determine whether the simultaneous/sequential treatment was additive or synergistic.
(§3) Data from cell viability assay (MTS) was expressed as the fraction of cells killed by individual drugs or by their combination in drug-treated compared with untreated cells. […]

MDA MB-231 = experiment: Sequential treatment, cell viability by MTS assay; type: cell-based; conditions: Homo sapiens, dox alone, read-out: IC50 (Dox ng/mL)
Experimental: as §1, §2, §3

IC50 (MCF-7): 20.7 ± 0.8 ng/mL
SMILES: COc1cccc2c1C(=O)c1c(O)c3c(c(O)c1C2=O)C[C@@](O)(C(=O)CO)C[C@@H]3O[C@H]1C[C@H](N)[C@H](O)[C@H](C)O1 [Dox, doxorubicin]
IC50 (MDA MB-231): 19.3 ± 1.9 ng/mL
